# Test results from paper PMC10882974 (Environmental Science & Technology, 2024).
# Structures can show the parent of a compound that is named as a salt.
# Columns and labels:
# [1] = tested on: C. elegans; test: general activity test (WMicrotracker); assay type: in vivo, Caenorhabditis elegans; settings: nominal concentrations; S medium with E. coli OD600 0.4; 24 h exposure; read-out: EC50 for the effect on activity (+95% confidence intervals)
# Experimental: Two quadrants were spiked with 2 μL of an attractant (0.5% diacetyl), and two contained 2 μL water as a control.[30] After 45 min, during which the worms could move freely, the dish was moved to 4 °C to immobilize the worms, and the number of worms in each quadrant was counted. The general activity was measured with a WMicrotracker from Phylumtech. This system measured the collective movement in multiwell plates by detecting the number of interruptions of an infrared beam over time. The total number of interruptions over a 30 min period was calculated with the Wmicrotracker software. […] For all data points, the mean and standard deviation were plotted using Graphpad Prism 9.4. The ordinary differential equations and parameters fitted in Matlab were also entered in Graphpad Prism to simulate the internal concentrations over time.
# [2] = tested on: C. elegans; settings: ref previous studies; cited from earlier work
# [3] = tested on: C. elegans; test: chemotaxis assay (diacetyl attractant); assay type: in vivo, Caenorhabditis elegans; settings: nominal concentrations; 72 h exposure from L1; S medium with E. coli OD600 0.4; read-out: EC50 for chemotaxis (+95% confidence intervals)
# Experimental: Two quadrants were spiked with 2 μL of an attractant (0.5% diacetyl), and two contained 2 μL water as a control.[30] After 45 min, during which the worms could move freely, the dish was moved to 4 °C to immobilize the worms, and the number of worms in each quadrant was counted. For all data points, the mean and standard deviation were plotted using Graphpad Prism 9.4. The ordinary differential equations and parameters fitted in Matlab were also entered in Graphpad Prism to simulate the internal concentrations over time.
compound,measurement,setting,value
"CNCCC(Oc1ccc(C(F)(F)F)cc1)c1ccccc1 (stereo not drawn) [fluoxetine, Fluoxetine hydrochloride]",EC50,[1],40 µg/mL
same,EC50 for the effect on C. elegans feeding behavior,[2],7 µg/mL
same,EC50,[3],16 µg/mL
